Test system: stationary-phase MRSA
Settings: endogenous fluorescence

## O=C(O)c1cn(C2CC2)c2cc(N3CCNCC3)c(F)cc2c1=O [ciprofloxacin]
  intracellular uptake with laser treatment vs untreated: increased fluorescence signal

Source: patent US20200306295A1, “METHOD AND DEVICE FOR ANNIHILATION OF Staphylococcus aureus” (priority 2017, published 2020)
